Out of some 360,000 compounds screened, about 780 (0.22%) were called active. This list was built around the results that the source calls inconclusive (neither active nor inactive); the mix of calls is not that of the screen. Rule as the data show it: active = inhibition above about 35% (passing the limit was not always enough); inconclusive = no clear call, values can overlap the other calls.
The compounds below were run on Botulinum neurotoxin type F light chain protease (Clostridium botulinum) (assay: BoNT/F light chain protease inhibitors, primary screen, biochemical, flow cytometry, MLPCN library (AID 588497; also: plate controls were buffer without enzyme for full effect and enzyme alone for no effect)). Details: Multiplex microsphere protease cleavage assay, at 10 µM, active compounds read high.

Row | SMILES | inhibition
1 | Cc1cc2c(o1)CC(C)(C)CC2=O | inactive: 2.3%
2 | CCOc1ccc(S(=O)(=O)NN2Cc3ccccc3C2=N)cc1 | inactive: -0.1%
3 | Nc1nonc1C(=O)N/N=C/c1ccc(-c2cccc([N+](=O)[O-])c2)o1 | inconclusive: -10.5%
4 | COCCCN(C(=O)c1ccc(N2CCCC2=O)cc1)c1c(N)n(Cc2ccccc2)c(=O)[nH]c1=O | inactive: 17.5%
5 | COc1ccccc1N1CCN(C(=O)Cn2cnc3c2c(=O)n(C)c(=O)n3C)CC1 | inconclusive: -17.6%
6 | Cn1c(SCc2cccc([N+](=O)[O-])c2)nc2ccccc2c1=O | inconclusive: 2.9%
7 | Cn1c(N2CCC(C(N)=O)CC2)nc2c1c(=O)n(Cc1ccc(Cl)cc1)c(=O)n2C | inconclusive: -14.4%
8 | Cc1cc(NC(=O)c2ccc(Cl)cc2)ccc1NC(=O)c1ccccc1Cl | active: 37.1%
9 | CC(C)C(=O)Nc1ccc(-c2nc3ncccc3o2)cc1 | inconclusive: 14.4%
10 | CC(=O)c1c(N2CCOCC2)nc2ccc(Br)cc2c1-c1ccccc1 | inconclusive: 4.1%
11 | CN(C)/C=C/C(=O)c1ccccc1 | inactive: 4.3%
12 | Cc1oc(C(C)(C)C)cc1C(N)=O | inconclusive: 46%
13 | CCN(CC)c1ccc(/C=N/NC(=O)OC(C)(C)C)cc1 | inconclusive: -73.7%
14 | CCN(CC)C(=O)c1c(-c2ccccc2)oc2ccc(O)cc12 | inconclusive: 3.1%
15 | CCOC(=O)C(=O)N/N=C/c1cccc(Br)c1 | inconclusive: -77.6%
16 | Cc1ccc(CN2CCN(Cc3ccco3)CC2)cc1 | inconclusive: 11.6%
17 | CCOC(=O)c1c(NC(=O)C2COc3ccccc3O2)sc2c1CCN(Cc1ccccc1)C2 (stereo not given) | inactive: -7.9%
18 | O=C(O)CCSc1nnc(SCC(=O)NC2CCS(=O)(=O)C2)s1 (stereo not given) | inactive: -6.3%
19 | CNC(=O)c1c(NC(=O)c2ccc(S(=O)(=O)N3CCCc4ccccc43)cc2)sc2c1CCN(C)C2 | inconclusive: -1.9%
20 | CCN1CCN(C(c2cc(OC)ccc2OC)c2nnnn2Cc2ccccc2)CC1 (stereo not given) | inconclusive: -28.7%

Row | SMILES | inhibition
21 | COc1ccc(CCN2C(=NC(=O)CC(C)C)SC3CS(=O)(=O)CC32)cc1OC (stereo not given) | inconclusive: -35.6%
22 | C=CCn1c(O)c(C(C)=NCCCN(C)C)c(=O)[nH]c1=O | inconclusive: -8%
23 | COc1ccc(C(=O)OCC(N)=O)cc1[N+](=O)[O-] | inactive: 4.7%
24 | CC(=O)Oc1ccc2c(=O)oc(-c3ccccc3C)nc2c1 | inconclusive: -11.7%
25 | O=C(O)CC(NC(=O)OCc1ccccc1)c1ccc(Br)cc1 (stereo not given) | inconclusive: 24.5%
26 | Cc1ccc(NC(=O)Cn2ncc3c([nH]c4ccccc43)c2=O)cc1Cl | inactive: 4.8%
27 | CS/C(Nc1cc(Cl)ccc1Cl)=C(/C#N)C(=O)c1ccco1 | inconclusive: 7.6%
28 | O=C(NCCc1ccc(Cl)cc1)c1ccc(S(=O)(=O)N2CCCC2)cc1 | inactive: -1.8%
29 | Cc1nc([N+](=O)[O-])cn1CC(=O)Nc1ccc([N+](=O)[O-])cc1 | inconclusive: -0.7%
30 | O=C(NC(=S)Nc1ccc(CN2CCOCC2)cc1)c1ccc(-c2cccc(Cl)c2)o1 | inactive: 4.3%
31 | CN(C(=O)CCS(=O)(=O)c1cc2c(cc1Cl)NC(=O)CO2)C1CCCCC1 | inactive: 5.2%
32 | Cc1ccc(/C=N/Nc2ccc(C(=O)O)cc2)s1 | inactive: -6.2%
33 | O=C1c2ccccc2C(=O)N1C1CCCCC1 | inconclusive: -9.3%
34 | CC1CCCCN1C(=O)COC(=O)c1cc(Cl)c2c(c1)OCO2 (stereo not given) | inconclusive: -7.8%
35 | CCC(NC(=O)c1ccccc1NC(=O)c1ccco1)C(=O)NNC(=O)c1ccncc1 (stereo not given) | inconclusive: -13.9%
36 | COCC(=O)n1cc(C(=O)OC)c2ccccc21 | inconclusive: 7.8%
37 | Fc1ccc(C(c2nnnn2C2CCCCC2)N2CCCC2)cc1 (stereo not given) | inactive: 4.3%
38 | Cc1ccc(S(=O)(=O)N(C)c2nonc2C)cc1 | inactive: -0.7%
39 | CC(C)(C)NC(=O)COc1ccc(-c2ccccc2)cc1 | inactive: -6%
40 | CC(O)CNc1nc2c(c(=O)n(Cc3ccc(Cl)cc3)c(=O)n2C)n1C (stereo not given) | inconclusive: -21.2%

In the list so far, 13 have a halogen:
Row | SMILES | inhibition
7 | Cn1c(N2CCC(C(N)=O)CC2)nc2c1c(=O)n(Cc1ccc(Cl)cc1)c(=O)n2C | inconclusive: -14.4%
8 | Cc1cc(NC(=O)c2ccc(Cl)cc2)ccc1NC(=O)c1ccccc1Cl | active: 37.1%
10 | CC(=O)c1c(N2CCOCC2)nc2ccc(Br)cc2c1-c1ccccc1 | inconclusive: 4.1%
15 | CCOC(=O)C(=O)N/N=C/c1cccc(Br)c1 | inconclusive: -77.6%
25 | O=C(O)CC(NC(=O)OCc1ccccc1)c1ccc(Br)cc1 (stereo not given) | inconclusive: 24.5%
26 | Cc1ccc(NC(=O)Cn2ncc3c([nH]c4ccccc43)c2=O)cc1Cl | inactive: 4.8%
27 | CS/C(Nc1cc(Cl)ccc1Cl)=C(/C#N)C(=O)c1ccco1 | inconclusive: 7.6%
28 | O=C(NCCc1ccc(Cl)cc1)c1ccc(S(=O)(=O)N2CCCC2)cc1 | inactive: -1.8%
30 | O=C(NC(=S)Nc1ccc(CN2CCOCC2)cc1)c1ccc(-c2cccc(Cl)c2)o1 | inactive: 4.3%
31 | CN(C(=O)CCS(=O)(=O)c1cc2c(cc1Cl)NC(=O)CO2)C1CCCCC1 | inactive: 5.2%
34 | CC1CCCCN1C(=O)COC(=O)c1cc(Cl)c2c(c1)OCO2 (stereo not given) | inconclusive: -7.8%
37 | Fc1ccc(C(c2nnnn2C2CCCCC2)N2CCCC2)cc1 (stereo not given) | inactive: 4.3%
40 | CC(O)CNc1nc2c(c(=O)n(Cc3ccc(Cl)cc3)c(=O)n2C)n1C (stereo not given) | inconclusive: -21.2%

An excerpt of these results, tab-delimited.
Row	SMILES	inhibition
23	COc1ccc(C(=O)OCC(N)=O)cc1[N+](=O)[O-]	inactive: 4.7%
24	CC(=O)Oc1ccc2c(=O)oc(-c3ccccc3C)nc2c1	inconclusive: -11.7%

Next part.

Row | SMILES | inhibition
41 | CN(Cc1nc2ccc(Cl)cc2[nH]1)Cc1nc(-c2cnccn2)no1 | inactive: -1.4%
42 | CCCNC1(C(N)=O)CCN(Cc2ccccc2)CC1 | inactive: 4.8%
43 | CCCC1OC(c2ccco2)OCC1CC (stereo not given) | inactive: -1.4%
44 | COCCN(CCOC)c1nc(-c2ccc([N+](=O)[O-])cc2)nc2ccccc12 | inconclusive: 43.9%
45 | O=C(O)c1ccc(N/N=C/c2cc3ccccc3nc2Cl)cc1 | inactive: -0.6%
46 | CC(=O)Nc1ccc(S(=O)(=O)NCC2CCC(C(=O)NCCCN(C)Cc3ccccc3)CC2)cc1 (stereo not given) | inactive: -3%
47 | Cc1ccc(C(=O)NCCNC(=O)c2ccccn2)cc1 | inactive: -2.2%
48 | O=C(NCCCN1CCOCC1)c1ccc(Cl)c([N+](=O)[O-])c1 | inconclusive: 43.3%
49 | Cc1cc(NC(=O)CN2C(=O)c3ccccc3C2=O)no1 | inconclusive: -29.9%
50 | O=C(c1ccc(-c2ccccc2)cc1)N1CCN(c2ccccc2)CC1 | inconclusive: -6.7%
51 | Cc1ncc(S(=O)(=O)c2ccccc2)c(-c2ccccc2)n1 | inactive: -1.9%
52 | COc1ccc(C2=NCc3nnc(C)n3-c3ccc(Cl)cc32)cc1Cl | inconclusive: -20.5%
53 | Clc1nc(NC2CCCC2)nc(N2CCOCC2)n1 | active: 53.9%
54 | CCC(CC)N1CCN(C(=O)c2cccc(Cl)c2)CC1 | inconclusive: 24.8%
55 | Cc1ccc(N2CC(O)Cn3c2nc2c3c(=O)[nH]c(=O)n2C)cc1 (stereo not given) | inconclusive: -11.8%
56 | COCCn1c(-c2ccc(F)cc2)nc2oc3cc(OC)ccc3c(=O)c2c1=O | inconclusive: 80.1%
57 | Cc1csc(NC(=O)C2CCCO2)n1 (stereo not given) | inactive: 3.9%
58 | CCN(CC)C(=O)c1[nH]cnc1C(=O)Nc1ccccc1F | inactive: -7%
59 | CC(=O)Nc1ccc(Nc2cc(C)c3ccccc3n2)cc1 | inconclusive: 21.9%
60 | O=C(COc1ncnc2ccc(Br)cc12)N1CCOCC1 | inconclusive: -23%
